These are yes or no findings as the source states them, for the method shown. Some results given as binding are weak or reduced against the parent protein; the word gives no strength. Tags and fused reporters may be left off the sequences shown.
Assays:
[1] = biological target: FleBt-FliB fusion protein (flagellin lysine methyltransferase FliB fused to the C-terminus of truncated FleB) (S. enterica serovar Typhimurium strain SL1344) (UniProt Q56106); test: atomic force microscopy; purified ftFliB settled on a flat MICA surface, imaged in buffer; both purified
[2] = biological target: FleBt-FliB fusion protein (flagellin lysine methyltransferase FliB fused to the C-terminus of truncated FleB) (S. enterica serovar Typhimurium strain SL1344) (UniProt Q56106); test: negative-stain transmission electron microscopy; purified ftFliB on a carbon-coated copper grid, 1% uranyl acetate, 120 kV; both purified
[3] = biological target: FleBt-FliB fusion protein (flagellin lysine methyltransferase FliB fused to the C-terminus of truncated FleB) (S. enterica serovar Typhimurium strain SL1344) (UniProt Q56106); test: SEC; TSK-GEL BioAssist G4SWXL column, buffer A (50 mM Tris-HCl, 150 mM NaCl, 10% glycerol, pH 8.5); ftFliB compared with the FleBt tag; both purified

Measured: binding

B1: FleBt-FliB fusion protein (flagellin lysine methyltransferase FliB fused to the C-terminus of truncated FleB) (enzyme)
chain: MKEITVTEPAFVTRFSCSGSACRDHCCKGWKITLDKTTVKKYLASKDTTIRTIAQDHIILLKKNNSHWGEIKLPSALGNCPYLDEDRLCRVQKTLGAKALSHTCSSFPRAHHTYKNEVRNSLSLACPEVTSRILNDPDAMALSEKTIIQQTFNTAPLFPAQQKLLNLFCLSLINHANSSTEAALYALIKFVMYAQKFAKIDDAALGELEQVYAALLEQLQTGVLAQELMNIAPDSKVKTSLVLQMQDYFRSLPLNRGSVILDHYIQCLLRVLTAEEGVSMEQKVSDIESSLARCLQANEQQKNWAFRNLILYKIWENNFPNQPNVDPLRALYIIVAEYAFIKLLTAASVHERGRIEWDDVTNIVYSFHSRSQHNSEVAKNFHRHIETVRTGDDLSMIHLLT
notes: also called ftFliB; source: E. coli BL21 (DE3), purified (HisTrap HP, SEC); copies: 14
binds: all assays above

— paper PMC8598068, “Flagellin lysine methyltransferase FliB catalyzes a [4Fe-4S] mediated methyl transfer reaction” (PLoS Pathogens, 2021)
